# Results are given in words; binding and its absence hold for the method and conditions named. Some entries that bind do so weakly or less than the wild type. Where a sequence is shown, tags or fusion partners need not be part of it.
# The chains behind the UniProt entries cited, without tags or fusion partners. Where a name states a change or a piece, a line headed by the entry shows the natural chain unless it says otherwise.
# UniProt P17931: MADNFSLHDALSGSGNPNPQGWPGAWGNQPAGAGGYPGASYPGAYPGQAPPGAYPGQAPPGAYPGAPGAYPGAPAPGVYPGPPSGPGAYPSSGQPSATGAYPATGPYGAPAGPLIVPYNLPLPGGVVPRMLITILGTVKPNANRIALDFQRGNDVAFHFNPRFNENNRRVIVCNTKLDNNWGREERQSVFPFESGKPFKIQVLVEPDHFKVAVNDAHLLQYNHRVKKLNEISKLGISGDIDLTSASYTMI
# What was measured:
# [1] = biological target: human Galectin-3 (Gal3), full-length recombinant (human) (UniProt P17931); assay: ELISA, Gal3 coated, receptor-Fc 3 µg/ml
# [2] = biological target: human Galectin-3 (Gal3), full-length recombinant (human) (UniProt P17931); assay: ELISA: Gal3 coated at 3 µg/ml, receptor at 3 µg/ml, anti-human IgG-HRP, A450
binder,measurement,setting,value
"recombinant human TGF-beta RI/ALK-5 Fc chimera protein (R&D Systems, 3025-BR) (Fc fusion, UniProt P36897 24-125, looked up, not shown: a dimerising Fc or GST) AAALLPGATALQCFCHLCTKDNFTCVTDGLCFVSVTETTDKVIHNSMCIAEIDLIPRDRPFVCAPSSKTGSVTTTYCCNQDHCNKIELPTTVKSSPGLGPVE",binding,[1],binds
same,binding,[2],binds

# From US20250145722A1, “ANTI-GAL3 ANTIBODIES AND METHODS OF USE” (TrueBinding, Inc., priority 2020, published 2025)
